Like-named read-outs stand apart in the source and are kept apart here. Results are given in words; binding and its absence hold for the method and conditions named. Binding seen in cells or lysates may run through a third protein. Some binding calls cover weakened binding; strength is not graded here. For some of these results: Sequences can lack the tags named with a protein.
How the values were obtained:
[1] = target: T1, endogenous TBK1 (human (endogenous in 293T)) (UniProt Q9UHD2); experiment: proximity ligation
T1 sequence: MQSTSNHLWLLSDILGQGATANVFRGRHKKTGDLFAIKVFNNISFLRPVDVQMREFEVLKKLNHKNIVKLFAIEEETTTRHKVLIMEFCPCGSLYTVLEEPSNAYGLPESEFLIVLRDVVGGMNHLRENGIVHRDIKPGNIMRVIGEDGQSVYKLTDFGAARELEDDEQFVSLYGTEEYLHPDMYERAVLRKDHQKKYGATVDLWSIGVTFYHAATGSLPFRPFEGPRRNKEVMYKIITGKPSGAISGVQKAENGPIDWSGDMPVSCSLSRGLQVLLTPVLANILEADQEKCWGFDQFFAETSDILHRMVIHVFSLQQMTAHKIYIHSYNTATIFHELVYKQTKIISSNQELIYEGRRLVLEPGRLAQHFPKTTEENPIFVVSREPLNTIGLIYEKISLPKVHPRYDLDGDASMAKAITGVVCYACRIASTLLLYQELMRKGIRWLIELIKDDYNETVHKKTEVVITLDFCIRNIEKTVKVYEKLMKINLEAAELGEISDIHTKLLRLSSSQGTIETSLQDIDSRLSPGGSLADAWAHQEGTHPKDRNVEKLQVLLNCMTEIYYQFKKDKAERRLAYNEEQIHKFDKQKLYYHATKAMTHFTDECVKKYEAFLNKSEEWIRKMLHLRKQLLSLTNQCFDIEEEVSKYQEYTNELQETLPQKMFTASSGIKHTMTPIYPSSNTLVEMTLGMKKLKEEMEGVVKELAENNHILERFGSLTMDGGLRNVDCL

Flag-ERRα [2] = target: T2, Flag-ERRα (UniProt P11474); experiment: co-IP
T2 sequence: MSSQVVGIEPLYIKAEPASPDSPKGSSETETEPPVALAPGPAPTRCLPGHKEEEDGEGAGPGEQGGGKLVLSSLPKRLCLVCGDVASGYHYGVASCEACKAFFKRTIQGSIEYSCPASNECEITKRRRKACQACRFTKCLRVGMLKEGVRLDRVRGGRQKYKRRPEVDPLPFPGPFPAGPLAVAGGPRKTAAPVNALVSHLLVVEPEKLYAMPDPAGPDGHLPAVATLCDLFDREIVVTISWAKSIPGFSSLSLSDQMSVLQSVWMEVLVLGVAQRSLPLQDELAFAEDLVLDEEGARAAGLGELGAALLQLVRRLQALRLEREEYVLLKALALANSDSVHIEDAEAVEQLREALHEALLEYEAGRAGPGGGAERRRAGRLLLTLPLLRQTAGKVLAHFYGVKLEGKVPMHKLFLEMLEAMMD

GST-ERRα fusion protein = target: T3, GST-ERRα fusion protein (UniProt P11474); experiment: pull-down; lysates of 293T cells with ectopic Flag-TBK1 or Flag-IRF3 incubated with GST or the GST-ERRα fusion protein; only the target purified
T3 sequence: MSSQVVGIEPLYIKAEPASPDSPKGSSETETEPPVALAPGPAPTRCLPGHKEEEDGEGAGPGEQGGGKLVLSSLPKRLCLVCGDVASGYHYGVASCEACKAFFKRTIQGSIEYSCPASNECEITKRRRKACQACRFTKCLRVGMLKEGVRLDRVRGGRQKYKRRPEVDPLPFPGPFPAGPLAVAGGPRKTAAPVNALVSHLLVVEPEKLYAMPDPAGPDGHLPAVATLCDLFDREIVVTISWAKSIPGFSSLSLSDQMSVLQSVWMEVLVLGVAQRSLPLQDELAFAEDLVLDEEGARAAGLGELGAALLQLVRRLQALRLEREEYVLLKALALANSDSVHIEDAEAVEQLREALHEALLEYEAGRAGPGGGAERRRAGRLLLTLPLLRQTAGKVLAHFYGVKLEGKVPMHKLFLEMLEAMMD

Flag-IRF3 = target: T4, Flag-IRF3 (human, UniProt Q14653 1-427); experiment: co-IP
T4 construct: not shown: Flag, N-terminal, kept
T4 sequence (looked up): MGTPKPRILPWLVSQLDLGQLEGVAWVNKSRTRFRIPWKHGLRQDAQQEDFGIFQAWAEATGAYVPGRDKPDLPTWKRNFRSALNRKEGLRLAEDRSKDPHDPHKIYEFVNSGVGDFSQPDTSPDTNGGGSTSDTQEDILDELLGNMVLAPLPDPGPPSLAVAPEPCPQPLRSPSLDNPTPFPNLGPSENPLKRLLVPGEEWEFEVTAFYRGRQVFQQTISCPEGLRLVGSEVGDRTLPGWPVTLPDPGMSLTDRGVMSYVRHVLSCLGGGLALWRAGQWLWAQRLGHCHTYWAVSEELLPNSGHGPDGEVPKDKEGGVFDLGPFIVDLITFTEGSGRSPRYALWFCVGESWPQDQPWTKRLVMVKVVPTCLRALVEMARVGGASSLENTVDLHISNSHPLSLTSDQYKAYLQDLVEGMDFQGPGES

HA-IKKε = target: T5, HA-IKKε (UniProt Q14164); experiment: co-IP
T5 sequence: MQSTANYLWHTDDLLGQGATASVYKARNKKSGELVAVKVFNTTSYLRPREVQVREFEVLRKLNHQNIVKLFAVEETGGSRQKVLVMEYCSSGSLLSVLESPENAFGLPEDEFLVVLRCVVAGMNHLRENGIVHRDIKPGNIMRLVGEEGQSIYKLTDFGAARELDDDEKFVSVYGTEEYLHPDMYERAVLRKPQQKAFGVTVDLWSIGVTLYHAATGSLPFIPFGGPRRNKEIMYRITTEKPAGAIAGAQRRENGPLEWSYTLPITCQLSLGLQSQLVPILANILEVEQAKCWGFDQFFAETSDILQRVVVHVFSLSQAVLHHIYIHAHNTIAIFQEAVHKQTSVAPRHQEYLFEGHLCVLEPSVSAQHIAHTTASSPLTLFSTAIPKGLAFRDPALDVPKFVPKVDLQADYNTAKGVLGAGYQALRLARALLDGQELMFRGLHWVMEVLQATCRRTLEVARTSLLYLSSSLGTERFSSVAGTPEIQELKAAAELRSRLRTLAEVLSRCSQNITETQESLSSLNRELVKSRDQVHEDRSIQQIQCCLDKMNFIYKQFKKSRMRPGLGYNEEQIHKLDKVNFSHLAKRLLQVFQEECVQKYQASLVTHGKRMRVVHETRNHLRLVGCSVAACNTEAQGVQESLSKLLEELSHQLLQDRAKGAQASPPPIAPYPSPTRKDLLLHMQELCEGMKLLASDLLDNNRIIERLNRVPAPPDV

HA-TBK1 = target: T6, HA-TBK1 (UniProt Q9UHD2); experiment: co-IP
T6 sequence: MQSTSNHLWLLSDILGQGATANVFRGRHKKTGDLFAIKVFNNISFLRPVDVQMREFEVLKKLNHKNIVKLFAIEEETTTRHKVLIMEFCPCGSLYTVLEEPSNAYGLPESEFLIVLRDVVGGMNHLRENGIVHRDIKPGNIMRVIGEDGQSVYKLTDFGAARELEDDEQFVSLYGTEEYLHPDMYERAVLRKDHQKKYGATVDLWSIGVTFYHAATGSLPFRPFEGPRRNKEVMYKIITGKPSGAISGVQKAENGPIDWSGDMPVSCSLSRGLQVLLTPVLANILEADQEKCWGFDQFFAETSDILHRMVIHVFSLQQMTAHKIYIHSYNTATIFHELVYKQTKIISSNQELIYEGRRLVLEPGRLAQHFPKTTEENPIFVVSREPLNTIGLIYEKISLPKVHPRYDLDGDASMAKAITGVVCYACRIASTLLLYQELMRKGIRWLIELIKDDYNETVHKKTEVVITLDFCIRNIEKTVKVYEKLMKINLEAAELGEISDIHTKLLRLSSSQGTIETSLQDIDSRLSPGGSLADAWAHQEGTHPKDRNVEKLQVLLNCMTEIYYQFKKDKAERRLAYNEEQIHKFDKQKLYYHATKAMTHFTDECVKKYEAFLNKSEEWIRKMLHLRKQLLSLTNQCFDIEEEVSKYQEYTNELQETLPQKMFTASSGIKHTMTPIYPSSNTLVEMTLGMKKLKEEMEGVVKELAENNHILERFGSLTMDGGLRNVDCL

[3] = target: T1, endogenous TBK1 (human (endogenous in 293T)); experiment: co-IP
[4] = target: T1, endogenous TBK1 (human (endogenous in 293T)); experiment: proximity ligation; remark: listed apart in the source
Flag-ERRα [5] = target: T2, Flag-ERRα; experiment: co-IP; remark: listed apart in the source

Question: “endogenous IRF3 (from UniProt Q14653 1-427)” was tested. Which binding [1] did it give?
Answer: binds

Question: For HA-IRF3 (from UniProt Q14653 1-427), which binding (Flag-ERRα [2]) is on record?
Answer: binds

B1: Flag-TBK1 (enzyme, UniProt Q9UHD2 1-729)
chain: MQSTSNHLWLLSDILGQGATANVFRGRHKKTGDLFAIKVFNNISFLRPVDVQMREFEVLKKLNHKNIVKLFAIEEETTTRHKVLIMEFCPCGSLYTVLEEPSNAYGLPESEFLIVLRDVVGGMNHLRENGIVHRDIKPGNIMRVIGEDGQSVYKLTDFGAARELEDDEQFVSLYGTEEYLHPDMYERAVLRKDHQKKYGATVDLWSIGVTFYHAATGSLPFRPFEGPRRNKEVMYKIITGKPSGAISGVQKAENGPIDWSGDMPVSCSLSRGLQVLLTPVLANILEADQEKCWGFDQFFAETSDILHRMVIHVFSLQQMTAHKIYIHSYNTATIFHELVYKQTKIISSNQELIYEGRRLVLEPGRLAQHFPKTTEENPIFVVSREPLNTIGLIYEKISLPKVHPRYDLDGDASMAKAITGVVCYACRIASTLLLYQELMRKGIRWLIELIKDDYNETVHKKTEVVITLDFCIRNIEKTVKVYEKLMKINLEAAELGEISDIHTKLLRLSSSQGTIETSLQDIDSRLSPGGSLADAWAHQEGTHPKDRNVEKLQVLLNCMTEIYYQFKKDKAERRLAYNEEQIHKFDKQKLYYHATKAMTHFTDECVKKYEAFLNKSEEWIRKMLHLRKQLLSLTNQCFDIEEEVSKYQEYTNELQETLPQKMFTASSGIKHTMTPIYPSSNTLVEMTLGMKKLKEEMEGVVKELAENNHILERFGSLTMDGGLRNVDCL
Question: B1 was tested. Which binding (GST-ERRα fusion protein) did it give?
Answer: binds

B2: Myc-ERRα (protein, UniProt P11474 1-423)
chain: MSSQVVGIEPLYIKAEPASPDSPKGSSETETEPPVALAPGPAPTRCLPGHKEEEDGEGAGPGEQGGGKLVLSSLPKRLCLVCGDVASGYHYGVASCEACKAFFKRTIQGSIEYSCPASNECEITKRRRKACQACRFTKCLRVGMLKEGVRLDRVRGGRQKYKRRPEVDPLPFPGPFPAGPLAVAGGPRKTAAPVNALVSHLLVVEPEKLYAMPDPAGPDGHLPAVATLCDLFDREIVVTISWAKSIPGFSSLSLSDQMSVLQSVWMEVLVLGVAQRSLPLQDELAFAEDLVLDEEGARAAGLGELGAALLQLVRRLQALRLEREEYVLLKALALANSDSVHIEDAEAVEQLREALHEALLEYEAGRAGPGGGAERRRAGRLLLTLPLLRQTAGKVLAHFYGVKLEGKVPMHKLFLEMLEAMMD
Question: B2 was tested. Which binding (Flag-IRF3) did it give?
Answer: binds

Question: And the binding (HA-IKKε)?
Answer: binds

Question: And the binding (HA-TBK1)?
Answer: binds

B3: endogenous ERRα (protein, UniProt P11474 1-423)
chain: MSSQVVGIEPLYIKAEPASPDSPKGSSETETEPPVALAPGPAPTRCLPGHKEEEDGEGAGPGEQGGGKLVLSSLPKRLCLVCGDVASGYHYGVASCEACKAFFKRTIQGSIEYSCPASNECEITKRRRKACQACRFTKCLRVGMLKEGVRLDRVRGGRQKYKRRPEVDPLPFPGPFPAGPLAVAGGPRKTAAPVNALVSHLLVVEPEKLYAMPDPAGPDGHLPAVATLCDLFDREIVVTISWAKSIPGFSSLSLSDQMSVLQSVWMEVLVLGVAQRSLPLQDELAFAEDLVLDEEGARAAGLGELGAALLQLVRRLQALRLEREEYVLLKALALANSDSVHIEDAEAVEQLREALHEALLEYEAGRAGPGGGAERRRAGRLLLTLPLLRQTAGKVLAHFYGVKLEGKVPMHKLFLEMLEAMMD
Question: Which binding [3] does the source give for B3 here?
Answer: binds

Question: What about the binding [4] of the same molecule?
Answer: binds

B4: HA-IKKε (enzyme, UniProt Q14164 1-716)
chain: MQSTANYLWHTDDLLGQGATASVYKARNKKSGELVAVKVFNTTSYLRPREVQVREFEVLRKLNHQNIVKLFAVEETGGSRQKVLVMEYCSSGSLLSVLESPENAFGLPEDEFLVVLRCVVAGMNHLRENGIVHRDIKPGNIMRLVGEEGQSIYKLTDFGAARELDDDEKFVSVYGTEEYLHPDMYERAVLRKPQQKAFGVTVDLWSIGVTLYHAATGSLPFIPFGGPRRNKEIMYRITTEKPAGAIAGAQRRENGPLEWSYTLPITCQLSLGLQSQLVPILANILEVEQAKCWGFDQFFAETSDILQRVVVHVFSLSQAVLHHIYIHAHNTIAIFQEAVHKQTSVAPRHQEYLFEGHLCVLEPSVSAQHIAHTTASSPLTLFSTAIPKGLAFRDPALDVPKFVPKVDLQADYNTAKGVLGAGYQALRLARALLDGQELMFRGLHWVMEVLQATCRRTLEVARTSLLYLSSSLGTERFSSVAGTPEIQELKAAAELRSRLRTLAEVLSRCSQNITETQESLSSLNRELVKSRDQVHEDRSIQQIQCCLDKMNFIYKQFKKSRMRPGLGYNEEQIHKLDKVNFSHLAKRLLQVFQEECVQKYQASLVTHGKRMRVVHETRNHLRLVGCSVAACNTEAQGVQESLSKLLEELSHQLLQDRAKGAQASPPPIAPYPSPTRKDLLLHMQELCEGMKLLASDLLDNNRIIERLNRVPAPPDV
Question: With B4 as the molecule, how does the binding (Flag-IRF3) read?
Answer: binds

Question: And the binding (Flag-ERRα [5])?
Answer: binds
